# Measured values as given in PubChem BioAssay AID2551 (National Center for Advancing Translational Sciences (NCATS), 2010).
# Chains of the proteins cited; added tags and fusions are not shown. Lines headed by an entry give the natural chain unless they say otherwise; changes in a name come on top.
# UniProt P51450: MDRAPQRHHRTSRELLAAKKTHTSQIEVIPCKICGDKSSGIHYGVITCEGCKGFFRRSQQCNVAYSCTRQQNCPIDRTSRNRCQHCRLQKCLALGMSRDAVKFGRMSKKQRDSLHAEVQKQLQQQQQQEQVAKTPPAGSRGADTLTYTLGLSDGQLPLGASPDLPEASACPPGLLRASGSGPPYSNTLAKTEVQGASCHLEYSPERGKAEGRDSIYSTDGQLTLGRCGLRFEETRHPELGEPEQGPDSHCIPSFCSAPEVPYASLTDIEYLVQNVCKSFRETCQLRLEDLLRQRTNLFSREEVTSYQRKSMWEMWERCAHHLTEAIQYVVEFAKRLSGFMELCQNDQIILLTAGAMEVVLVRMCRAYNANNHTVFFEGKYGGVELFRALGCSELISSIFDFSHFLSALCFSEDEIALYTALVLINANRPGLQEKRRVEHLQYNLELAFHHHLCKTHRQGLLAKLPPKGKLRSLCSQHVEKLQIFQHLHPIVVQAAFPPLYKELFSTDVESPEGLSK
# The campaign covered roughly 310,000 compounds. About 17,000 (5.5%) were called active. The inconclusive results got no clear call from the source; some entries with a clear call stand among them for comparison. The call rests on the fitted dose curve; in most records, active means well fitted inhibition curve with a large enough effect; inconclusive means small, poorly fitted or top-dose-only effect, or effect the other way; inactive means no such curve, though single readings can be large or run the other way. Potencies of inconclusive entries are doubtful fits and often do not repeat.
# Biological target: Nuclear receptor ROR-gamma (Mus musculus) (UniProt P51450)
# Assay: qHTS for inhibitors of ROR gamma transcriptional activity; further: nearly all actives have a fitted effect of over 60% in size
# Details: Drosophila S2 Gal4-RORgamma UAS-luciferase reporter, 20 h; series mostly up to 53.6 µM
# Method in brief: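 Drosophila Schneider cells stably carrying a metallothionein-driven Gal4 DBD–ROR gamma fusion and a UAS-Photinus luciferase reporter were exposed to compound for 1 hr, then induced with copper sulfate (700 uM final) for 20 hr at ambient temperature before luminescence reading.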
# Potency means the concentration at half of the fitted maximal effect.
row,SMILES,Potency
1,Cc1cc(C)cc(OCC(=O)Nc2nc(-c3cccnc3)cs2)c1,"inconclusive: 15.8 µM [inhibitor, single point]"
2,Cn1c(CCN2CCOCC2)nc2cc(NC(=O)c3cccs3)ccc21,"inconclusive: 35.5 µM [activator, single point]"
3,CCc1ccc(-c2cc(C(=O)Nn3cnnc3)c3ccccc3n2)cc1,active: 0.891 µM
4,COc1cccc(/C=N/n2c(COc3ccccc3)n[nH]c2=S)c1OC,active: 20 µM
5,O=C(Nc1nnc(-c2ccc(F)cc2)o1)c1cccc([N+](=O)[O-])c1,active: 0.398 µM
6,CCOC(=O)CNc1nc2ccccc2n2c(C)nnc12,"inconclusive: 10 µM [inhibitor, partial curve, poor fit]"
7,COc1ccc(NC(=O)CN(C)S(=O)(=O)c2ccccc2)cc1,"inconclusive: 22.4 µM [activator, single point]"
8,C/C(=N\NC(=O)CCc1c[nH]c2ccccc12)c1ccc([N+](=O)[O-])cc1,"inconclusive: 20 µM [activator, single point]"
9,Cc1c(N2C(=O)/C(=C3\C(=O)N(CC(=O)O)c4ccccc43)SC2=S)c(=O)n(-c2ccccc2)n1C,"inconclusive: 22.4 µM [inhibitor, single point]"
10,Cc1nc2c(C)cccc2c2c1CCS2,inactive
11,CC1(C)NC(C)(C)/C(=C\c2cccs2)C(=O)C1=O,inactive
12,CC1(CC(=O)N/N=C/c2ccc(OCc3ccc(Cl)cc3Cl)cc2)OCCCO1,"inconclusive: 11.2 µM [activator, single point]"
13,CC1(C)Cc2nc3sc4c(SCC(=O)NCc5ccccc5)ncnc4c3cc2CO1,"inconclusive: 1.78 µM [activator, full curve, poor fit]"
14,CCCn1c(C)cc(/C=C(\C#N)C(=O)OCC(=O)Nc2ccc(OC)c(Cl)c2)c1C,"inconclusive: 14.1 µM [activator, partial curve, poor fit]"
15,CC1=NOC(=O)/C1=C\c1ccc(-c2ccc(Br)cc2)o1,"inconclusive: 35.5 µM [inhibitor, single point]"
16,Cc1ccc(CNC(=O)C2CCCN2C(=O)Nc2ccccc2)cc1 (stereo not drawn),inactive
17,CN1CCN(CC(O)(c2ccc(Cl)cc2)c2ccc(Cl)cc2)CC1,"inconclusive: 12.6 µM [inhibitor, single point]"
18,O=C(Nc1ccc2c(c1)C(=O)NC2=O)c1ccc(Cl)s1,inactive
19,COc1ccc(S(=O)(=O)N2CCC(n3cnc4cc(C(F)(F)F)ccc43)CC2)cc1,"inconclusive: 1.12 µM [activator, full curve, poor fit]"
20,O=C(NCCc1cccs1)C1CC(c2c(Cl)cccc2Cl)=NO1 (stereo not drawn),"inconclusive: 11.2 µM [activator, partial curve, poor fit]"
21,CC1(C)Cc2ccccc2C(/C(=N\Nc2cccc(Cl)c2)C(N)=O)=N1,"inconclusive: 22.4 µM [inhibitor, single point]"
22,CCOC(=O)c1ccc(NC(=O)Cn2c(-c3nonc3N)nc3ccccc32)cc1,inactive
23,Cc1ccc2nc(-c3ccc(NC(=O)CN(C)S(=O)(=O)c4ccccc4)cc3)sc2c1,active: 2 µM
24,CCOC(=O)c1sc(NC(=O)C2CC(=O)N(c3ccc(OCC)cc3)C2)nc1C (stereo not drawn),inactive
25,O=C(NC(=S)NC1CCCCC1)c1ccccc1[N+](=O)[O-],active: 5.01 µM

row,SMILES,Potency
1,COc1ccc(OC)c(NC(=O)CSc2nc3n[nH]c(C)c3c(=N)n2-c2cccc(Cl)c2C)c1,inactive
2,CC(C)Oc1ccc(CC(=O)NNC(=S)Nc2ccccc2)cc1,"inconclusive: 7.08 µM [inhibitor, full curve, poor fit]"
3,CCCN(Cc1cc2cc(OC)ccc2[nH]c1=O)C(=O)c1ccco1,"inconclusive: 31.6 µM [activator, single point]"
4,S=c1[nH]nc(-c2cccc(Cl)c2)n1/N=C/c1ccco1,"inconclusive: 1.41 µM [inhibitor, partial curve]"
5,CCOC(=O)C1CCN(C(=O)CN2C(=O)CSc3ccc(S(=O)(=O)N4CCOCC4)cc32)CC1,inactive
6,CN(C)c1ccc(/C=C/c2ccc3ccccc3n2)cc1,active: 3.98 µM
7,Cc1c(NC(=O)COC(=O)Cc2ccc(Cl)cc2)c(=O)n(-c2ccccc2)n1C,"inconclusive: 3.55 µM [inhibitor, single point]"
8,CCN1C(=O)c2cccc3c(NC(=O)C(C)(C)C)ccc1c23,inactive
9,Nc1cc(S(=O)(=O)Nc2ccccc2Cl)ccc1N1CCOCC1,"inconclusive: 11.2 µM [activator, partial curve]"
10,Cn1c(=O)cnc2cnc(Oc3ccccc3)nc21,inactive
11,COc1ccc(-c2nc(C#N)c(N3CCCCCC3)o2)cc1,"inconclusive: 14.1 µM [inhibitor, single point]"
12,COc1cc(/C=C2\SC(=S)N(Nc3ccccc3)C2=O)ccc1O,"inconclusive: 20 µM [activator, partial curve]"
13,CC(C)(C)OC(=O)N[C@@H](Cc1ccccc1)c1nnc(S(=O)(=O)Cc2ccccc2)o1,active: 4.47 µM
14,COc1ccccc1-c1cc(N)n(S(=O)(=O)c2ccc(F)c(C)c2)n1,"inconclusive: 12.6 µM [activator, partial curve]"
15,O=C(Nc1ccc2c(c1)C(=O)N(CC1CCCO1)C2=O)c1ccccc1Br (stereo not drawn),"inconclusive: 14.1 µM [activator, partial curve]"
16,Cc1cc(Cl)ccc1C(=O)C1CCCN(C(=O)c2cnsn2)C1 (stereo not drawn),inactive
17,O=C(NC(=S)Nc1cccc2ncccc12)c1ccco1,"inconclusive: 17.8 µM [inhibitor, single point]"
18,CN=C(Nc1cccnc1)c1ccccc1,inactive
19,CCC1(c2ccc(Cl)cc2)NC(=S)N(c2ccc(C)c(C)c2)N1 (stereo not drawn),"inconclusive: 1.41 µM [inhibitor, full curve, poor fit]"
20,O=C(c1ccc2c(=O)n(Cc3ccc(Cl)cc3)c(=S)[nH]c2c1)N1CCCC1,active: 5.01 µM
21,COc1ccc(C=C2c3ccccc3C(=O)c3ccccc32)c(OC)c1,inactive
22,CCOc1ccccc1N(C(=O)Nc1ccc(Cl)cc1)C1=NC(C)CS1 (stereo not drawn),"inconclusive: 0.631 µM [activator, full curve, poor fit]"
23,O=C(Nc1nncs1)C1CC(=O)N(C2CCCC2)C1 (stereo not drawn),inactive
24,CC(C)(C)c1ccc(NC(=S)NCc2cccs2)cc1,active: 7.08 µM
25,O=C(CN1C(=O)c2ccccc2S1(=O)=O)NCc1ccc(F)cc1,"inconclusive: 6.31 µM [activator, single point]"

# Sorted by count of non-hydrogen atoms (falling): part of the list above.
row,SMILES,Potency
1,COc1ccc(OC)c(NC(=O)CSc2nc3n[nH]c(C)c3c(=N)n2-c2cccc(Cl)c2C)c1,inactive
13,CC(C)(C)OC(=O)N[C@@H](Cc1ccccc1)c1nnc(S(=O)(=O)Cc2ccccc2)o1,active: 4.47 µM
7,Cc1c(NC(=O)COC(=O)Cc2ccc(Cl)cc2)c(=O)n(-c2ccccc2)n1C,"inconclusive: 3.55 µM [inhibitor, single point]"
20,O=C(c1ccc2c(=O)n(Cc3ccc(Cl)cc3)c(=S)[nH]c2c1)N1CCCC1,active: 5.01 µM
22,CCOc1ccccc1N(C(=O)Nc1ccc(Cl)cc1)C1=NC(C)CS1 (stereo not drawn),"inconclusive: 0.631 µM [activator, full curve, poor fit]"
14,COc1ccccc1-c1cc(N)n(S(=O)(=O)c2ccc(F)c(C)c2)n1,"inconclusive: 12.6 µM [activator, partial curve]"
9,Nc1cc(S(=O)(=O)Nc2ccccc2Cl)ccc1N1CCOCC1,"inconclusive: 11.2 µM [activator, partial curve]"
16,Cc1cc(Cl)ccc1C(=O)C1CCCN(C(=O)c2cnsn2)C1 (stereo not drawn),inactive
11,COc1ccc(-c2nc(C#N)c(N3CCCCCC3)o2)cc1,"inconclusive: 14.1 µM [inhibitor, single point]"
6,CN(C)c1ccc(/C=C/c2ccc3ccccc3n2)cc1,active: 3.98 µM
4,S=c1[nH]nc(-c2cccc(Cl)c2)n1/N=C/c1ccco1,"inconclusive: 1.41 µM [inhibitor, partial curve]"
10,Cn1c(=O)cnc2cnc(Oc3ccccc3)nc21,inactive
18,CN=C(Nc1cccnc1)c1ccccc1,inactive

# The list continues.

row,SMILES,Potency
1,O=C(Cc1ccccc1)Nc1ccc(N2CCN(Cc3ccccc3F)CC2)cc1,"inconclusive: 11.2 µM [inhibitor, partial curve, poor fit]"
2,Cc1ccccc1CSCC(=O)c1c(N)n(C)c(=O)n(C)c1=O,"inconclusive: 12.6 µM [activator, partial curve]"
3,O=C(CCC1CCCC1)N1CCN(C(=O)c2ccco2)CC1,"inconclusive: 15.8 µM [inhibitor, single point]"
4,Clc1ccc(C(c2nnnn2CCc2ccccc2)N2CCSCC2)cc1 (stereo not drawn),"inconclusive: 35.5 µM [inhibitor, single point]"
5,COc1ccc(OC)c(/C=N/NC(=O)c2ccncc2)c1,inactive
6,CCc1ccccc1NC(=S)N(CCN1CCCCCC1)Cc1ccco1,active: 17.8 µM
7,CCOC(=O)c1c(C)[nH]c(=S)c(C#N)c1-c1ccccc1,active: 12.6 µM
8,Cc1ccc(CNc2nc(C)cs2)cc1,"inconclusive: 15.8 µM [inhibitor, single point]"
9,CC(C)n1c(-c2ccccc2)nc(=S)c2c1CCCC2,"inconclusive: 17.8 µM [inhibitor, single point]"
10,COc1ccccc1OCCCCCNCCO,"inconclusive: 22.4 µM [activator, single point]"
11,COC(=O)c1cccc(NC(=S)NCc2ccc(F)cc2)c1,active: 10 µM
12,CC(=O)N1CCC2(CC1)C/C(=N\NC(=S)Nc1ccccc1C)c1cc(O)ccc1O2,"inconclusive: 22.4 µM [inhibitor, single point]"
13,CCc1c(C(=O)N/N=C/c2ccsc2)csc1C,"inconclusive: 12.6 µM [inhibitor, single point]"
14,Cc1ccc(-c2noc(C3CCCN(C(=O)c4ccc(C(C)(C)C)cc4)C3)n2)o1 (stereo not drawn),"inconclusive: 35.5 µM [inhibitor, single point]"
15,CSc1nc(NCc2ccccc2)c2c3c(sc2n1)CN(C)CC3,inactive
16,COCCNc1ccnc(-c2c(C)noc2C)n1,inactive
17,NS(=O)(=O)c1ccc(CCNC(=O)CN2CCN(Cc3cccc(C(F)(F)F)c3)CC2)cc1,"inconclusive: 22.4 µM [activator, partial curve, poor fit]"
18,Cc1cccc(-n2c(C)cc(/C=N/NC(N)=S)c2C)c1,active: 3.55 µM
19,O=C(CCCn1c(=O)c2ccccc2n(Cc2ccccc2)c1=O)NCc1ccco1,"inconclusive: 3.55 µM [activator, single point]"
20,CCOC(=O)C1=C(c2ccccc2)NC(=S)NC1c1ccc(Cl)c([N+](=O)[O-])c1 (stereo not drawn),"inconclusive: 20 µM [inhibitor, single point]"
21,Cc1ccc(NC(=O)CN2CCc3ccccc3C2)cc1,"inconclusive: 2.82 µM [activator, single point]"
22,CSc1ncccc1C(=O)N1CCCC(CCC(=O)NCc2ccc(F)c(F)c2)C1 (stereo not drawn),"inconclusive: 22.4 µM [activator, single point]"
23,CC(=O)Nc1ccc(NC(=O)c2ccc(C3SCC(=O)N3CCc3ccccc3)cc2)cc1 (stereo not drawn),"inconclusive: 4.47 µM [activator, full curve, poor fit]"
